Data published in PubChem BioAssay AID1671190 (National Center for Advancing Translational Sciences (NCATS), 2021).
In all, about 580,000 compounds went through this assay and about 6,100 (1.1%) were called active. Inconclusive means that the source gave no clear call. Such entries were picked first, then a sample of the others. The call rests on the fitted dose curve; in most records, active means well fitted inhibition curve with a large enough effect; inconclusive means small, poorly fitted or top-dose-only effect, or another doubt; inactive means no such curve, though single readings can be large or run the other way. Potencies of inconclusive entries are doubtful fits and often do not repeat.

The chains behind the UniProt entries cited, without tags or fusion partners. Where a name states a change or a piece, a line headed by the entry shows the natural chain unless it says otherwise.
UniProt P18054: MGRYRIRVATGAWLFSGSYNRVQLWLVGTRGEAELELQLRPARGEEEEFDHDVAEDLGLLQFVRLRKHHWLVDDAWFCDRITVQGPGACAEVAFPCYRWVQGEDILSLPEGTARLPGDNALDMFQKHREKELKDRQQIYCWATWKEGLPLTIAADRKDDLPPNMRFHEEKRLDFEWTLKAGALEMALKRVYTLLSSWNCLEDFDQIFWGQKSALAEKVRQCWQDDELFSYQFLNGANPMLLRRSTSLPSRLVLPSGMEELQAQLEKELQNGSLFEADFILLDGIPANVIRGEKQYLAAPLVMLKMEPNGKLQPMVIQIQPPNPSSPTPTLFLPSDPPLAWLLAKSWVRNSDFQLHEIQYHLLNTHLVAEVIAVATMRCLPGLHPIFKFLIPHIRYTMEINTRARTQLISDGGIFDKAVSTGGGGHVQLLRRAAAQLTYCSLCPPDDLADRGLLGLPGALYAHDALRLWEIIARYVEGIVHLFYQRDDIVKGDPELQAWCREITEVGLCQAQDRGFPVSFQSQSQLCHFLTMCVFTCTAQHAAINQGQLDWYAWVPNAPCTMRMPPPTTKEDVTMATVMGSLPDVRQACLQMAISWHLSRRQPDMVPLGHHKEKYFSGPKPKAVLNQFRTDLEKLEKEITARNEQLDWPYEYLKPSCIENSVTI

Molecular target: Polyunsaturated fatty acid lipoxygenase ALOX12 (Homo sapiens) (UniProt P18054)
Assay: Primary qHTS assay for inhibitors of human arachidonate 12S-lipoxygenase (ALOX12): Round 2
Conditions: purified 12hLO, xylenol orange hydroperoxide absorbance; activity change, negative = inhibition: at 108 µM (top of the series) unless noted
Method in brief: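 Purified human 12hLO (150 nM final) in 25 mM Hepes, 0.01% Triton X-100, pH 7.0 was preincubated 15 min at room temperature with compound. Then 40 uM arachidonic acid was added, 30 min. Hydroperoxide was read by Fe-XO absorbance ratio 573/405 nm.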
On the % scale 0 is the no-effect control and ±100 the full control effect; potency means the concentration at half of the fitted maximal effect.

Structure (SMILES)	Potency	activity change, negative = inhibition
CCN(CC)S(=O)(=O)c1ccc2oc(SC(C(=O)NC3CC3)c3ccccc3)nc2c1 (stereo not drawn)	inconclusive: 31.6 µM [inhibitor, partial curve, poor fit]	–
CN(C)C(=O)c1nc(-c2ccc(S(C)(=O)=O)cc2)c2cnccn12	inconclusive: 63.1 µM [inhibitor, partial curve, poor fit]	–
Cc1nn(CC(=O)Nc2ccc(Br)cc2Cl)c(=O)c(C#N)c1C	inconclusive: 56.2 µM [inhibitor, partial curve, poor fit]	–
CN(C)CCN(C)Cc1ccccc1Sc1cccc2ccccc12	inconclusive: 50.1 µM [inhibitor, partial curve, poor fit]	–
Cc1ccc(S(=O)(=O)Oc2ccccc2/C=C2\SC(=O)NC2=O)cc1	inactive	–
CCc1nc(NCCCN2CCOCC2)c2oc3ccccc3c2n1	inconclusive: 28.2 µM [inhibitor, partial curve, poor fit]	–
Cc1ccc(C2NC(=O)N(CC(=O)Nc3ccccc3C(C)C)C3=C2C(=O)OC3)cc1 (stereo not drawn)	inactive	–
CNc1oc(C)nc1S(=O)(=O)c1ccccc1	inactive	–
O=C(Nc1ccc(S(=O)(=O)C(F)F)cc1)c1cccc(S(=O)(=O)N2CCOCC2)c1	inconclusive: 79.4 µM [inhibitor, single point]	–
Cc1ccc(C(=O)NC(N(C)C)C(Cl)(Cl)Cl)cc1 (stereo not drawn)	inactive	–
Cc1cccc(OCCCN)c1	inconclusive: 44.7 µM [inhibitor, partial curve, poor fit]	–
Cc1ccc(NC(=O)CCc2nc3cccnc3n2-c2ccccc2)cc1	inconclusive: 89.1 µM [inhibitor, partial curve, poor fit]	–
O=C1CC(c2ccccc2)c2c(n3c(nc4ccccc43)[nH]c2=O)N1 (stereo not drawn)	inactive	–
COc1ccc(NC(=O)CN2CCN(CC(=O)Nc3ccccc3Cl)CC2)cc1	inconclusive: 56.2 µM [inhibitor, partial curve, poor fit]	–
Cc1cccc([S+](=O)([O-])N2CCC3(CC2)OCCN(C)C3=O)c1	inactive	–
CCc1ccc(C2C=C(c3ccc(OC)cc3)Nc3nnnn32)cc1 (stereo not drawn)	inconclusive: 126 µM [inhibitor, single point]	–
CCc1cc(C(=O)N2CCN(c3ccccc3OC)CC2)sc1C	inconclusive: 100 µM [inhibitor, single point]	–
C=CCn1c(CSc2ccc(C)cc2)n[nH]c1=S	inconclusive: 44.7 µM [inhibitor, partial curve]	–
COc1ccccc1C(=O)C1CCCN(C(=O)c2ccco2)C1 (stereo not drawn)	inactive	–
COC(=O)N/N=C/c1cc(Cl)cc(Cl)c1OCc1ccccc1F	inconclusive: 2.51 µM [inhibitor, full curve, poor fit]	–
CCOC(=O)c1[nH]c2ccccc2c1NC(=O)c1cc(Cl)ccc1Cl	inconclusive: 100 µM [inhibitor, partial curve, poor fit]	–
CCCCC(=O)N(C)c1c(CC)nc2c(OCc3ccc(Cl)cc3Cl)cccn12	inconclusive: 79.4 µM [inhibitor, partial curve, poor fit]	–

Structure (SMILES)	Potency	activity change, negative = inhibition
Cc1ccc(CNc2ccc(-c3nc(-c4cccnc4)no3)cc2[N+](=O)[O-])cc1	inactive	–
CCCCCCSc1cc(-c2nc3ccc(C)cn3c2NCc2ccccc2)ccc1OC	inconclusive: 44.7 µM [inhibitor, partial curve, poor fit]	–
COc1cc(NC(=O)C2CCCN(S(=O)(=O)c3ccc4c(c3)oc(=O)n4C)C2)cc(OC)c1 (stereo not drawn)	inconclusive: 100 µM [inhibitor, single point]	–
COc1ccc(-c2noc(C(C)n3nc(C)c([N+](=O)[O-])c3C)n2)cc1OC (stereo not drawn)	inconclusive: 126 µM [inhibitor, single point]	–
COc1ccc(/C=C2\SC(=O)N(CCC(=O)N3CCCCC3)C2=O)cc1OC	–	inconclusive: -35.8% [inhibitor]
CCOP(=O)(c1ccccc1)c1nc(-c2ccc(F)cc2)oc1N1CCCCC1 (stereo not drawn)	inconclusive: 50.1 µM [inhibitor, partial curve, poor fit]	–
Cc1cc(=O)[nH]c2c1c(C)nn2C1CCOC(C)(C)C1 (stereo not drawn)	inactive	–
Cc1ccc(C)c(NC(=O)c2cc(-c3cc(C)oc3C)nc3onc(C)c23)c1	inconclusive: 28.2 µM [inhibitor, partial curve, poor fit]	–
Cc1ccc(/C=C/C(=O)NCCCN2CCN(CCCNC(=O)/C=C/c3ccc(C)cc3)CC2)cc1	inactive	–
CC(C)NC(=O)c1nn(-c2ccccc2)nc1CO	inactive	–
Cc1cc(C)c2c(=O)[nH]c(SCc3ccccc3C)nc2n1	inconclusive: 100 µM [inhibitor, single point]	–
Cc1ccc2nc(SCC(=O)Nc3cccc([N+](=O)[O-])c3)[nH]c2c1	inactive	–
CCc1cc2c(=O)c(-c3nc4ccccc4n3C)c(C(C)C)oc2c(CN2CCN(C)CC2)c1O	inactive	–
COc1ccc(OCC(=O)N2CCN(c3cccc(C(F)(F)F)c3)CC2)cc1	inconclusive: 50.1 µM [inhibitor, partial curve, poor fit]	–
Oc1cccc(-c2nc3ncccn3c2Nc2cccc(C(F)(F)F)c2)c1	inconclusive: 56.2 µM [inhibitor, partial curve, poor fit]	–
Cn1ccc(C(=O)NCc2nnc3n2C(C(=O)NCCc2ccc(Cl)cc2)CC3)n1 (stereo not drawn)	inconclusive: 56.2 µM [inhibitor, partial curve, poor fit]	–
O=C(NCCSC1CCCC1)c1cccs1	inactive	–
CC(=O)c1cc(C#N)c(N2CCCC2)nc1C	inconclusive: 63.1 µM [inhibitor, partial curve, poor fit]	–
COc1cc(CN2CCCCC23Cc2ccccc2CNC3=O)ccc1F (stereo not drawn)	inconclusive: 12.6 µM [inhibitor, full curve]	–
Cc1cc(NS(C)(=O)=O)c(=O)n(Cc2c(F)cccc2Cl)c1	inconclusive: 35.5 µM [inhibitor, partial curve, poor fit]	–
CCOC(=O)C1(CCOc2ccccc2)CCN(Cc2cccn2-c2ncccn2)CC1	inactive	–

Quoted at random: 3 records from the list
Structure (SMILES)	Potency	activity change, negative = inhibition
CC(C)NC(=O)c1nn(-c2ccccc2)nc1CO	inactive	–
COc1cc(CN2CCCCC23Cc2ccccc2CNC3=O)ccc1F (stereo not drawn)	inconclusive: 12.6 µM [inhibitor, full curve]	–
C=CCn1c(CSc2ccc(C)cc2)n[nH]c1=S	inconclusive: 44.7 µM [inhibitor, partial curve]	–
